Data as given in PubChem BioAssay AID1259308 (NCATS, 2017)

Aim: 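Genes whose loss raises luciferase production in HEK293 cells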 (primary screen)
Cell system: human HEK293 embryonic kidney cells stably expressing firefly luciferase (HEK-CMV-Luc2-Hygro)
Reagents: single siRNA against human genes, 0.8 pmol siRNA per well
Duration: 72 h
Read-out: 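Luciferase light (ONE-Glo) measured on one replicate plate set and viability (CellTiter-Glo) on the other, scaled to a negative control siRNA, with robust z-scores and luciferase per cell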
Direction: total luciferase, z-score and total luciferase, % of control: higher = more reporter protein produced; luciferase per cell, z-score: higher = more reporter output per viable cell
Rule for the call: 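Active when the median/MAD z-score for overall luciferase is greater than 3; a gene was taken forward for validation with new siRNAs if at least two of its three siRNAs passed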
Calls: active = raised luciferase; inactive = no rise
The deposit covers about 59,000 reagents; this is a random part of them. About 1,510 of them (2.6%) were called active. 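Calls use total luciferase alone and ignore viability, so some active siRNAs may act by altering cell number.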 Entries without a mark were called inactive. The numbers tell different reagents against one gene apart. Further read-outs or replicates are left out here. No sequences are given here.

gene | reagent | total luciferase, z-score | total luciferase, % of control | luciferase per cell, z-score
RPL13AP20 | 1 | -2.43 | 33.5 | -1.42
RPL13AP20 | 2 | -2.37 | 34.7 | -1.25
RPL13AP20 | 3 | -2.96 | 23 | -2.75
TRIM6 | 1 | -0.125 | 79.4 | 0.45
TRIM6 | 2 | -1.45 | 53 | -1.53
TRIM6 | 3 | -0.0339 | 81.2 | -0.42
HSPA2 | 1 | 0.438 | 90.6 | 0.109
HSPA2 | 2 | 0.491 | 91.7 | 0.516
HSPA2 | 3 | -0.453 | 72.9 | 0.000344
BAAT | 1 | -0.408 | 73.8 | -1.07
BAAT | 2 | 1.97 | 121 | 0.654
BAAT | 3 | -0.563 | 70.7 | -1.4
PPP3CA-DT | 1 | 4.67 (active) | 175 | 3.6
PPP3CA-DT | 2 | 0.000237 | 81.9 | -0.0115
PPP3CA-DT | 3 | -0.259 | 76.7 | -0.466
KHSRP | 1 | 1.5 | 112 | 1.52
KHSRP | 2 | -0.991 | 62.2 | -1.76
KHSRP | 3 | 1.57 | 113 | 0.447
PATJ | 1 | -0.0965 | 80 | -0.623
PATJ | 2 | -0.0889 | 80.1 | -0.685
PATJ | 3 | 0.293 | 87.7 | 0.457

Next part (5 carried over from the part before).
gene | reagent | total luciferase, z-score | total luciferase, % of control | luciferase per cell, z-score
KHSRP | 2 | -0.991 | 62.2 | -1.76
KHSRP | 3 | 1.57 | 113 | 0.447
PATJ | 1 | -0.0965 | 80 | -0.623
PATJ | 2 | -0.0889 | 80.1 | -0.685
PATJ | 3 | 0.293 | 87.7 | 0.457
SIX2 | 1 | 0.585 | 93.5 | 0.179
SIX2 | 2 | -0.219 | 77.5 | -0.468
SIX2 | 3 | 0.407 | 90 | 0.184
CD248 | 1 | 0.54 | 92.6 | 0.861
CD248 | 2 | -0.887 | 64.2 | -0.954
CD248 | 3 | -2.67 | 28.9 | -1.32
CNPPD1 | 1 | -0.105 | 79.8 | 0.000975
CNPPD1 | 2 | -0.471 | 72.5 | -0.772
CNPPD1 | 3 | 0.354 | 88.9 | 0.342
C21orf58 | 1 | 0.818 | 98.2 | 0.455
C21orf58 | 2 | -0.74 | 67.2 | -0.964
C21orf58 | 3 | -1.02 | 61.7 | -0.877
TPT1 | 1 | 2.92 | 140 | 2.78
TPT1 | 2 | -1.22 | 57.7 | -0.865
TPT1 | 3 | -1.09 | 60.2 | -2.18
CASP2 | 1 | 0.182 | 85.5 | 0.0431
CASP2 | 2 | 0.598 | 93.8 | 0.354
CASP2 | 3 | -0.978 | 62.4 | -0.212
